Test results as given in paper PMC5422253, “Cryo-EM Structure of a Relaxase Reveals the Molecular Basis of DNA Unwinding during Bacterial Conjugation”.

Legend:
TraI-MBP = TraI-MBP (UniProt Q6TDU5); assay: size exclusion chromatography; conditions: 1:1 complex, peak I; photocleavable PC linker C3 between nt 30 and 31; EPR complexes: PBS pH 7.4, 1 mM MgCl2; recombinant protein; residues 1-1756; label: 5'-Cy5, 3'-6-FAM; single-stranded DNA
TraI-MBP + TraI1-1475 = assay: size exclusion chromatography; conditions: 1:1:1 complex, peak II; photocleavable PC linker C3 between nt 30 and 31; EPR complexes: PBS pH 7.4, 1 mM MgCl2; recombinant protein; label: 5'-Cy5, 3'-6-FAM; single-stranded DNA
TraI A1105W = TraI A1105W (UniProt Q6TDU5); assay: fluorescence anisotropy; conditions: 2-3 fold decrease stated for most mutants, Kd only in figure; Anisotropy: 10 nM 22-merAlexa488, 50 mM Tris pH 7.2, 100 mM NaCl, 25 C, 20 min; recombinant protein; residues 1-1756; protein details: N-terminal His6 with enterokinase site; label: 3'-Alexa488; single-stranded DNA
TraI M795A = TraI M795A (UniProt Q6TDU5); assay: fluorescence anisotropy; conditions: 2-3 fold decrease stated for most mutants, Kd only in figure; Anisotropy: 10 nM 22-merAlexa488, 50 mM Tris pH 7.2, 100 mM NaCl, 25 C, 20 min; recombinant protein; residues 1-1756; protein details: N-terminal His6 with enterokinase site; label: 3'-Alexa488; single-stranded DNA
TraI R330A = TraI R330A (UniProt Q6TDU5); assay: fluorescence anisotropy; conditions: 2-3 fold decrease stated for most mutants, Kd only in figure; Anisotropy: 10 nM 22-merAlexa488, 50 mM Tris pH 7.2, 100 mM NaCl, 25 C, 20 min; recombinant protein; residues 1-1756; protein details: N-terminal His6 with enterokinase site; label: 3'-Alexa488; single-stranded DNA
TraI Y190A = TraI Y190A (UniProt Q6TDU5); assay: fluorescence anisotropy; conditions: 2-3 fold decrease stated for most mutants, Kd only in figure; Anisotropy: 10 nM 22-merAlexa488, 50 mM Tris pH 7.2, 100 mM NaCl, 25 C, 20 min; recombinant protein; residues 1-1756; protein details: N-terminal His6 with enterokinase site; label: 3'-Alexa488; single-stranded DNA

“GCAAAAACTTGTTTTTGCGTGGGGTGTGGTGCTTTTGGTGGTGAGAACC [49-merCy5*6-FAM]”: binds (TraI-MBP); binds (TraI-MBP + TraI1-1475).

GGTGCTTTTGGTGGTGAGAACC [22-merAlexa488]: binds more weakly (TraI A1105W); binds more weakly (TraI M795A); binds more weakly (TraI R330A). GGTGCTTTTGGTGGTGAGAACC [22-merAlexa488]: binds more weakly (TraI Y190A).

For at least one entry, the source does not settle the construct or the ends of the probe. For part of these data: Weaker means in comparison with the reference protein, sequence or condition of that experiment. For part of these data: At least one verdict was read from the data and is not stated in words by the source.
